Test results taken from PMC11730874.
No constants are given. Whether binding was seen depends on the method and setting. For some assays here: Binding seen in cells or lysates may run through a third protein. Some results given as binding are weak or reduced against the parent protein; the word gives no strength. Sequences can lack the tags named with a protein.

Assays:
[1] = biological target: T1, His-SUMO-tagged WT hRab23_(7-172), GMPPNP-loaded (human) (UniProt Q9ULC3); experiment: pull-down; 1 ug GMPPNP-exchanged His-SUMO-Rab23 protein on Dynabeads His-tag magnetic beads, incubated overnight with 1 mg lysate of HEK293 cells overexpressing KIF17-mCitrine (lysis buffer with 0.5% Triton X-100; lysate treated with 20 uM GMPPNP, 4 °C, 1 h); Western blot with anti-KIF17; only the target purified
T1 sequence: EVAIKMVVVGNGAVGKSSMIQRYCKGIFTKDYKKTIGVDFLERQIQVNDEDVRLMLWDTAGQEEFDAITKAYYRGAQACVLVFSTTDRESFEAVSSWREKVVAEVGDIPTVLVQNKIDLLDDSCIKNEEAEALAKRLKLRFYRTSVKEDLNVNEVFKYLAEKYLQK

[2] = biological target: T2, Inturned (Intu), His-tagged (human) (UniProt Q9ULD6); experiment: co-purification (Ni-NTA, ion exchange, SEC); Intu (His-tagged) and Fuz co-expressed in Hi-5 cells; Ni-NTA, TEV cleavage, HiTrap Q, Superdex 200 in 20 mM Tris pH 8.0, 200 mM NaCl, 1 mM DTT
T2 sequence: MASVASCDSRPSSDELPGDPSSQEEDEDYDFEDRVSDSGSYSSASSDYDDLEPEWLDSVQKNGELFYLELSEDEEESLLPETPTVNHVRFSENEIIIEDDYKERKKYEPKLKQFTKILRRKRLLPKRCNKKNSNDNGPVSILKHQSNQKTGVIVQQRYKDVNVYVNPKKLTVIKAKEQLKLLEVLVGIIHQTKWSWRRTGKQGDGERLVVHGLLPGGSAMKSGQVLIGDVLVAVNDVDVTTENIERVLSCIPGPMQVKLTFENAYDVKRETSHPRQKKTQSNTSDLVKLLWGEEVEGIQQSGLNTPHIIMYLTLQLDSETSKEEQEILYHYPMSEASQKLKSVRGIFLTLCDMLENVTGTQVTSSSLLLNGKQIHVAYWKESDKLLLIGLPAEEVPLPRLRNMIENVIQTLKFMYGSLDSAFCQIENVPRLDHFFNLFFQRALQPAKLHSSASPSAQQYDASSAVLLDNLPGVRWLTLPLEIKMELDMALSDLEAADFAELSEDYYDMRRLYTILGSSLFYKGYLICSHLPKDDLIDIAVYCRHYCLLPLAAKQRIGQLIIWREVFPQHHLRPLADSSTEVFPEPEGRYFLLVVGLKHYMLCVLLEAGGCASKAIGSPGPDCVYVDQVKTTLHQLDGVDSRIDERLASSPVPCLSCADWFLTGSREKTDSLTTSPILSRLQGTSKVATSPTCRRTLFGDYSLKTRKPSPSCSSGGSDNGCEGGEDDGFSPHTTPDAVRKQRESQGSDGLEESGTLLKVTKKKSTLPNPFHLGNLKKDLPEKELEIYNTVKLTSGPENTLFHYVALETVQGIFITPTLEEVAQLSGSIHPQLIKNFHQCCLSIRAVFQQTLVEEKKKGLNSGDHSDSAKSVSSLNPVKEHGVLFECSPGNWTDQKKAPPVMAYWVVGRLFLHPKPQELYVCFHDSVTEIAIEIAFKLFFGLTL

Row | Binder | binding [1] | binding [2]
1 | KIF17-mCitrine (protein, UniProt Q9P2E2 1-1029) MASEAVKVVVRCRPMNQRERELRCQPVVTVDCARAQCCIQNPGAADEPPKQFTFDGAYHVDHVTEQIYNEIAYPLVEGVTEGYNGTIFAYGQTGSGKSFTMQGLPDPPSQRGIIPRAFEHVFESVQCAENTKFLVRASYLEIYNEDVRDLLGADTKQKLELKEHPEKGVYVKGLSMHTVHSVAQCEHIMETGWKNRSVGYTLMNKDSSRSHSIFTISIEMSAVDERGKDHLRAGKLNLVDLAGSERQSKTGATGERLKEATKINLSLSALGNVISALVDGRCKHVPYRDSKLTRLLQDSLGGNTKTLMVACLSPADNNYDETLSTLRYANRAKNIRNKPRINEDPKDALLREYQEEIKKLKAILTQQMSPSSLSALLSRQVPPDPVQVEEKLLPQPVIQHDVEAEKQLIREEYEERLARLKADYKAEQESRARLEEDITAMRNSYDVRLSTLEENLRKETEAVLQVGVLYKAEVMSRAEFASSAEYPPAFQYETVVKPKVFSTTDTLPSDDVSKTQVSSRFAELPKVEPSKSEISLGSSESSSLEETSVSEAFPGPEEPSNVEVSMPTEESRSRYFLDECLGQEAAGHLLGEQNYLPQEEPQEVPLQGLLGLQDPFAEVEAKLARLSSTVARTDAPQADVPKVPVQVPAPTDLLEPSDARPEAEAADDFPPRPEVDLASEVALEVVRTAEPGVWLEAQAPVALVAQPEPLPATAGVKRESVGMEVAVLTDDPLPVVDQQQVLARLQLLEQQVVGGEQAKNKDLKEKHKRRKRYADERRKQLVAALQNSDEDSGDWVLLNVYDSIQEEVRAKSKLLEKMQRKLRAAEVEIKDLQSEFQLEKIDYLATIRRQERDSMLLQQLLEQVQPLIRRDCNYSNLEKILRESCWDEDNGFWKIPHPVITKTSLPVAVSTGPQNKPARKTSAADNGEPNMEDDRYRLMLSRSNSENIASNYFRSKRASQILSTDARKSLTHHNSPPGLSCPLSNNSAIPPTQAPEMPQPRPFRLESLDIPFTKAKRKKSKSNFGSEPL | binds | 
2 | Fuzzy (Fuz) (protein, UniProt Q9BT04 1-418) MGEEGTGGTVHLLCLAASSGVPLFCRSSRGGAPARQQLPFSVIGSLNGVHMFGQNLEVQLSSARTENTTVVWKSFHDSITLIVLSSEVGISELRLERLLQMVFGAMVLLVGLEELTNIRNVERLKKDLRASYCLIDSFLGDSELIGDLTQCVDCVIPPEGSLLQEALSGFAEAAGTTFVSLVVSGRVVAATEGWWRLGTPEAVLLPWLVGSLPPQTARDYPVYLPHGSPTVPHRLLTLTLLPSLELCLLCGPSPPLSQLYPQLLERWWQPLLDPLRACLPLGPRALPSGFPLHTDILGLLLLHLELKRCLFTVEPLGDKEPSPEQRRRLLRNFYTLVTSTHFPPEPGPPEKTEDEVYQAQLPRACYLVLGTEEPGTGVRLVALQLGLRRLLLLLSPQSPTHGLRSLATHTLHALTPLL |  | binds
